# The supplement of paper PMC7125110
# ± gives the standard error. Many entries were measured with a wide error.
# B1: glmS ribozyme (parent)
# chain: AUAAAAGCGCCAGAACUACAGAAAUGUAGUUGACGAGGAGGAGGUUUAUCGAAUUUUCGGCGGAUGCCUCCAAA
# Variants of: B1
# Experiment: KM; higher = weaker cofactor use; RNA array
# Conditions: with glucosamine-6-phosphate
# Method in brief: (§1)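 A hybridised Cy3 probe tracked barcoded ribozyme variants, transcribed in situ by E. coli RNA polymerase on sequenced MiSeq chips, at 37 °C. The variants received 40 μM to 10 mM glucosamine-6-phosphate in HEPES/KCl/Mg(OAc)2 buffer. kobs came from decay fits and kcat and KM from weighted Michaelis–Menten fits.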
row,Variant,KM [µM]
1,G32A U46A,16900 ± 850
2,G32A U65A,4120 ± 2200
3,G32C A52G,7100 ± 4400
4,G32C A53U,7510 ± 930
5,G32C G59A,1370 ± 690
6,G32C U55G,10500 ± 1800
7,G32C U57G,86 ± 57
8,G32U A64G,3130 ± 1100
9,G32U C71U,5540 ± 1700
10,A33C G37A,3920 ± 2800
11,A33C G38U,58.7 ± 41
12,A33G C61A,70.5 ± 43
13,A33G G37C,1520 ± 780
14,A33U A52G,8900 ± 6300
15,A33U C61U,49 ± 39
16,A33U C67U,1110 ± 1100
17,A33U G40C,16000 ± 3900
18,A33U U47G,682 ± 350
19,C34A U45A G51U,1500 ± 830
20,C34G C67U,37.1 ± 28
21,G35A C50G U69A,30.8 ± 23
22,G35A G37U,3390 ± 2000
23,G35C U65G,1500 ± 360
24,G35U U55C,288 ± 180
25,A36C G38C,43.6 ± 31
26,A36U C67U,44.2 ± 40

# Shown with tabs: entries from further up
row	Variant	KM [µM]
19	C34A U45A G51U	1500 ± 830
20	C34G C67U	37.1 ± 28
21	G35A C50G U69A	30.8 ± 23
22	G35A G37U	3390 ± 2000
23	G35C U65G	1500 ± 360

# Further entries:

row,Variant,KM [µM]
1,A36U G37U,21.7 ± 19
2,A36U G66A,55.3 ± 40
3,G37A A42U,2220 ± 480
4,G37A A53U C71U,1320 ± 1100
5,G37A G41U,749 ± 510
6,G37A G43U,620 ± 300
7,G37A G44U A53U,2030 ± 1800
8,G37A G62A,62.6 ± 53
9,G37C U49G,3030 ± 2600
10,G37C U54C,9990 ± 8200
11,G37C U65G,661 ± 470
12,G38A U55C,37.7 ± 15
13,G38A U69G,89.8 ± 85
14,G38U,54.5 ± 39
15,A39C A48G U55C,12400 ± 1500
16,A39C C70U,1210 ± 530
17,A39C U46G,2000 ± 420
18,A39G A53G C67G,580 ± 370
19,A39G C67G,602 ± 300
20,A39G G44U,6340 ± 3000
21,A39G G59A,2250 ± 1700
22,A39U A52G,4750 ± 800
23,A39U A53C,2890 ± 1100
24,A39U C58U,440 ± 240
25,A39U G40A,1880 ± 1200
26,A39U G40A C67A,760 ± 190

row,Variant,KM [µM]
1,A39U G44U,805 ± 540
2,A39U G66U,2010 ± 860
3,A39U U54G,1320 ± 760
4,A39U U55G,1130 ± 760
5,G40A G66A,3050 ± 1800
6,G40A U56C,2280 ± 720
7,G40C C67U,2080 ± 1100
8,G40C U45A,823 ± 200
9,G40C U45G,1120 ± 830
10,G40C U56C,1990 ± 1300
11,G40U A48G,18200 ± 13000
12,G40U A53G,1010 ± 690
13,G40U U47G,908 ± 250
14,G40U U56G,1680 ± 940
15,G41A U56A,1110 ± 630
16,G41A U56G,1740 ± 310
17,G41C U45G G66C,6290 ± 3200
18,G41C U46A,3110 ± 830
19,G41C U47C,708 ± 690
20,G41C U54A,384 ± 360
21,G41C U56A,2730 ± 2200
22,G41U A53C,2500 ± 1600
23,G41U U46C,676 ± 50
24,G41U U47G,3850 ± 2600
25,G41U U54C,639 ± 320
26,G41U U54G,196 ± 120

row,Variant,KM [µM]
1,A42C C70G,1410 ± 550
2,A42G C58A,2480 ± 390
3,A42G C70U,1580 ± 870
4,A42G G43A,1440 ± 500
5,A42G G66A U69A,1590 ± 490
6,A42G U57G,514 ± 77
7,A42U U46G,901 ± 260
8,G43A C70U,1370 ± 970
9,G43A U45G,1540 ± 1000
10,G43U U54G,1500 ± 1400
11,G44A G66U,2150 ± 520
12,G44A U55G,1380 ± 1200
13,G44A U56A,2650 ± 150
14,G44U A53U,1460 ± 1400
15,G44U A64G,1820 ± 1400
16,G44U U65G,12800 ± 1400
17,U45A A48C,2130 ± 560
18,U45A C50U,34700 ± 17000
19,U45A C58U,4210 ± 1900
20,U45A G66A,527 ± 280
21,U45A U55G,136 ± 77
22,U45C C70G,14200 ± 4600
23,U45C U56A,1520 ± 800
24,U45C U56C,5500 ± 810
25,U45G U46G,4120 ± 2300
26,U45G U69G,2570 ± 2200

row,Variant,KM [µM]
1,U46A G66C,2150 ± 1300
2,U46C,1410 ± 170
3,U46C U65G,1700 ± 970
4,U46G A48U,1370 ± 770
5,U46G C58A,10000 ± 4400
6,U46G G66A C70G,1040 ± 830
7,U46G U69A,142 ± 100
8,U47A C70U,73.5 ± 58
9,U47C G66A,1050 ± 470
10,U47G A48G,504 ± 270
11,U47G C67A,488 ± 380
12,U47G C70U,45.7 ± 30
13,U47G U56C A64G,1500 ± 480
14,A48C G66A,2900 ± 1700
15,A48C U55C,2810 ± 1600
16,A48U G66U,1230 ± 730
17,U49A U55A,5970 ± 610
18,U49C C61U,114 ± 94
19,U49G U56C,352 ± 280
20,C50A U54G,314 ± 190
21,C50A U55C,897 ± 650
22,C50U A53C U54G,48.8 ± 27
23,C50U A64G,10200 ± 2700
24,C50U G66A,20000 ± 12000
25,C50U U57G,195 ± 110
26,G51A C61A,234 ± 230

row,Variant,KM [µM]
1,G51U C61G,28.5 ± 24
2,A52C U54A,368 ± 130
3,A52G U65A,6000 ± 4000
4,A52G U65G,4110 ± 2800
5,A52U C68U,2080 ± 62
6,A52U G66A,30400 ± 17000
7,A53C G59C,236 ± 200
8,A53C G60A,7110 ± 2300
9,A53C U56G,1830 ± 570
10,A53G C67G,2380 ± 1200
11,A53G G59A,4360 ± 1300
12,A53G G62U,54.1 ± 47
13,A53G U55C,1230 ± 510
14,A53G U55G,2460 ± 1400
15,A53G U65G,1310 ± 750
16,A53U C67A,785 ± 230
17,A53U C70A,79.6 ± 43
18,A53U U57C,1360 ± 210
19,U54A C58A,5450 ± 1700
20,U54A C71G,145 ± 94
21,U54A U65G,2600 ± 1400
22,U54A U69A,65.2 ± 58

# Variants of: B1
# Experiment: self-cleavage kobs at 10000 uM GlcN6P; higher = faster cleavage; RNA array
# Conditions: with glucosamine-6-phosphate
# Method in brief: as §1
row,Variant,self-cleavage kobs at 10000 uM GlcN6P [s⁻¹]
1,G32C A52G,1.14e-05 ± 1e-05
2,A33U G40C,1.98e-05 ± 1e-05
3,A39U C58U,1.78e-05 ± 9e-06
4,A39U G44U,0.00948 ± 0.0081
5,C50A U54G,1.96e-05 ± 1.5e-05
6,A53U C70A,0.0022 ± 0.0011

# Variants of: B1
# Experiment: self-cleavage kobs at 40 uM GlcN6P; higher = faster cleavage; RNA array
# Conditions: with glucosamine-6-phosphate
# Method in brief: as §1
row,Variant,self-cleavage kobs at 40 uM GlcN6P [s⁻¹]
1,G32U A64G,2.04e-05 ± 1.8e-05
2,A39G G44U,2.81e-05 ± 1.7e-05
3,A39U A52G,1.2e-05 ± 9.4e-06
4,U45C U56A,1.61e-05 ± 9.4e-06
5,U45G U69G,3.69e-05 ± 3.1e-05
6,U54A U69A,2.42e-05 ± 1.2e-05

# Variants of: B1
# Experiment: self-cleavage kobs at 640 uM GlcN6P; higher = faster cleavage; RNA array
# Conditions: with glucosamine-6-phosphate
# Method in brief: as §1
row,Variant,self-cleavage kobs at 640 uM GlcN6P [s⁻¹]
1,A33U U47G,1.56e-05 ± 1.2e-05
2,G37A G43U,2.13e-05 ± 1.3e-05
3,G38A U69G,2.68e-05 ± 1.4e-05
4,G40C C67U,1.49e-05 ± 1.1e-05
5,A42G U57G,2.61e-05 ± 2.1e-05
6,U45G U69G,4.86e-05 ± 3.4e-05
7,U46G C58A,2.13e-05 ± 1.9e-05
8,A52U G66A,2.05e-05 ± 1.1e-05

# Variants of: B1
# Experiment: self-cleavage kobs at 160 uM GlcN6P; higher = faster cleavage; RNA array
# Conditions: with glucosamine-6-phosphate
# Method in brief: as §1
row,Variant,self-cleavage kobs at 160 uM GlcN6P [s⁻¹]
1,C34A U45A G51U,2.71e-05 ± 2.3e-05
2,G38A U69G,2.17e-05 ± 1.4e-05
3,G41A U56G,2.59e-05 ± 2.2e-05
4,U47G U56C A64G,2.52e-05 ± 2.2e-05
5,A48C U55C,2.74e-05 ± 1.9e-05
6,A52G U65A,2.25e-05 ± 2e-05

# Looked up above.
# U47G U56C A64G – self-cleavage kobs at 160 uM GlcN6P [s⁻¹]: 2.52e-05 ± 2.2e-05
# G38A U69G – self-cleavage kobs at 160 uM GlcN6P [s⁻¹]: 2.17e-05 ± 1.4e-05
# A48C U55C – self-cleavage kobs at 160 uM GlcN6P [s⁻¹]: 2.74e-05 ± 1.9e-05

# Variants of: B1
# Experiment: self-cleavage kobs at 2500 uM GlcN6P; higher = faster cleavage; RNA array
# Conditions: with glucosamine-6-phosphate
# Method in brief: as §1
row,Variant,self-cleavage kobs at 2500 uM GlcN6P [s⁻¹]
1,G37C U54C,1.26e-05 ± 1e-05
2,A39U C58U,1.77e-05 ± 1.7e-05
3,G40U A48G,1.03e-05 ± 1e-05
4,G41C U47C,3.53e-05 ± 1.9e-05
5,U45G U69G,7.41e-05 ± 3.8e-05
6,A48U G66U,2.14e-05 ± 1.7e-05
7,C50A U54G,2.13e-05 ± 1.3e-05
8,C50U G66A,1.35e-05 ± 1.2e-05
9,A53U C67A,0.0077 ± 0.0048
10,A53U C70A,0.00126 ± 0.00084

# Retrieved one by one from above:
row,Variant,self-cleavage kobs at 2500 uM GlcN6P [s⁻¹]
1,G37C U54C,1.26e-05 ± 1e-05
3,G40U A48G,1.03e-05 ± 1e-05
9,A53U C67A,0.0077 ± 0.0048
